Residue numbers refer to the chain shown, from its start. The exact form of at least one protein or probe is not confirmed. For some assays here: At least one verdict rests on a figure or table, not on a statement of the authors. Protein sequences can lack the tags named with them. For some assays here: The direction of at least one scale is not stated here.
Tests used:
[1] = target: T1, hDus2 dsRBD Q367A (Homo sapiens) (UniProt Q9NX74); experiment: EMSA; details: impaired discrimination between dsRNA and tRNA; EMSA: 50 mM Tris-HCl pH 8, 10% glycerol, 5 mM DTT, 150 mM ammonium acetate, 1 uM tRNALys3, 20 min room temperature; 6% native PAGE at 4 C; recombinant protein; residues 339-451
T1 sequence (looked up): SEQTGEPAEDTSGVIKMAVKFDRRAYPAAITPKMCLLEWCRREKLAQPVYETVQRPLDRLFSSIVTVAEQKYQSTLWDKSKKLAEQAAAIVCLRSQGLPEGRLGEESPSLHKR

[2] = target: T2, hDus2 dsRBD R362A (Homo sapiens) (UniProt Q9NX74); experiment: EMSA; details: EMSA: 50 mM Tris-HCl pH 8, 10% glycerol, 5 mM DTT, 150 mM ammonium acetate, 1 uM tRNALys3, 20 min room temperature; 6% native PAGE at 4 C; recombinant protein; residues 339-451; scale: fold lower affinity than same mutant for tRNA
T2 sequence (looked up): T1 sequence (looked up) with R24A, A29Q

Sequence: CGAACUUCGCG / CGAACUUCGCG [11-nt palindromic dsRNA]
- binding result [1]: binds
- binding signal [2]: 3

Source: paper PMC6451096, “Molecular basis for transfer RNA recognition by the double-stranded RNA-binding domain of human dihydrouridine synthase 2”
